This data set in a line: peptide made by a vendor (Fmoc solid-phase peptide synthesis). As to conditions: whole synthesis.

For SYPIPDT-GHEG-ECG-K-tetramethylrhodamine, the “final purity (method not given)” value is “greater than 90%”.
